The other results are listed elsewhere or left out.
How the values were obtained:
Assay in all cases: log2 fold change, soluble protein after heating vs DMSO (PISA); higher = thermal stabilisation; K562 lysate, 10 uM; active = over 0.2 and 3.5 SD of the protein, either way, in both replicates (recomputed)
[1] = compound: CNC(=O)C1=CC=CC=C1NC2=NC(=NC=C2Cl)NC3=C(C=C(C=C3)N4CCOCC4)OC
Procedure, shortened: (§1)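 Dounce homogenisation of K562 pellets in PBS pH 7.4 with 1 mM MgCl2 produced a crude extract, used at 1 mg/mL protein. Exposure to 10 μM compound lasted 30 min, and aliquots were then heated for 3 min across 48°C-58°C, pooled and brought to 0.5% NP-40 at 4°C. The supernatant after 21,000xg for 90 min was quantified by TMTpro 16plex LC-MS/MS with channel sums equalised. Duplicate values are given as log-two fold change in thermal stability relative to solvent controls.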

Sequences of proteins named here, by UniProt entry; tags and fusion partners are left off. A change or cut given only in a name is not applied to a line headed by its entry.
UniProt Q96MW1: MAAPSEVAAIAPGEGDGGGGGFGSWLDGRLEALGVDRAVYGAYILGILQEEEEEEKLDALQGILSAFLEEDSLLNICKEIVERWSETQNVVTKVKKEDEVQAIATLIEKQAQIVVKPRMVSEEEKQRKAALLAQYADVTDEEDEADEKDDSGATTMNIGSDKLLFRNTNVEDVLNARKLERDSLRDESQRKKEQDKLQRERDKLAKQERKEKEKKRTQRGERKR
UniProt P24385, whole entry, looked up: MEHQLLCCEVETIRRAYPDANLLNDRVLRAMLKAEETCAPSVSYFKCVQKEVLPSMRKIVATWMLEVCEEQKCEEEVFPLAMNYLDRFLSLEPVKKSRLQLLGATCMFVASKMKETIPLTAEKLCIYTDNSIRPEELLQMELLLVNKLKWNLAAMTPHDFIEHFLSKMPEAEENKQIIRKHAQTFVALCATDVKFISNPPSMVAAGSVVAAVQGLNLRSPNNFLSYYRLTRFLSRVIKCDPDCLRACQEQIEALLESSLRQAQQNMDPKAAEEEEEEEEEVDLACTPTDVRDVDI
UniProt P13994: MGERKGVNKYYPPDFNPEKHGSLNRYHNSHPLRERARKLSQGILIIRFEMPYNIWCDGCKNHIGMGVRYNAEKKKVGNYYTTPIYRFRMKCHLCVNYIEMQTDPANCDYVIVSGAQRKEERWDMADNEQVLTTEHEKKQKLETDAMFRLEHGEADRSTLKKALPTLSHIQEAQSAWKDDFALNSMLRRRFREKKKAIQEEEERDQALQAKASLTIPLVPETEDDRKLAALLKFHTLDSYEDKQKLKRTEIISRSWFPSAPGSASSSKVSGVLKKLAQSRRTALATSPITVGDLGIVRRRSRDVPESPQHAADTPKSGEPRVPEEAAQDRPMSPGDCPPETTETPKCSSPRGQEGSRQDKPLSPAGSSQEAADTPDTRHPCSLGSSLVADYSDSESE
UniProt O00421: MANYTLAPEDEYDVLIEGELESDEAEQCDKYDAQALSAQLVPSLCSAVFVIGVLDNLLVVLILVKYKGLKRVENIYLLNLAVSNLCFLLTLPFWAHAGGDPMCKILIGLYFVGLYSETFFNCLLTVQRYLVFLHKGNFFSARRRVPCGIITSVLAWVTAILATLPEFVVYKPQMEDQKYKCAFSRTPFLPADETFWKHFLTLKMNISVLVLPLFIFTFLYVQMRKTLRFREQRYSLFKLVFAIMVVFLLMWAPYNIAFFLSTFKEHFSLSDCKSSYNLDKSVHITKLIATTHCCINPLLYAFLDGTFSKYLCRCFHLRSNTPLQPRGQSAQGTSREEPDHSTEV
UniProt P25942, whole entry, looked up: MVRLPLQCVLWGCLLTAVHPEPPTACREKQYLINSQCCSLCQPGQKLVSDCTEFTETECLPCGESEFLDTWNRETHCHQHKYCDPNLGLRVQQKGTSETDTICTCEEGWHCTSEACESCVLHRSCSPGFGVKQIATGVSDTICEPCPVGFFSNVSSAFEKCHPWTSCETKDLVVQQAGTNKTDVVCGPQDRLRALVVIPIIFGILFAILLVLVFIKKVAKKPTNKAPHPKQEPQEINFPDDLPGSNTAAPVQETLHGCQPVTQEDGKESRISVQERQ
UniProt Q8WTX7: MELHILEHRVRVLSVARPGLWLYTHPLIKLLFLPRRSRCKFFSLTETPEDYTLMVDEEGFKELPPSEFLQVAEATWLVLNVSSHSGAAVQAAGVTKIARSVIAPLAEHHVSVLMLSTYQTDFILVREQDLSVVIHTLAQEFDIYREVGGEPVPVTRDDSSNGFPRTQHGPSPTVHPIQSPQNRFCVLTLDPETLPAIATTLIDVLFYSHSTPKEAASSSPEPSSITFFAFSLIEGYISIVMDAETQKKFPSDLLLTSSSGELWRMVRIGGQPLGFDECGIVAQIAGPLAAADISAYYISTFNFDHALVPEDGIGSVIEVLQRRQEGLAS
UniProt Q04900: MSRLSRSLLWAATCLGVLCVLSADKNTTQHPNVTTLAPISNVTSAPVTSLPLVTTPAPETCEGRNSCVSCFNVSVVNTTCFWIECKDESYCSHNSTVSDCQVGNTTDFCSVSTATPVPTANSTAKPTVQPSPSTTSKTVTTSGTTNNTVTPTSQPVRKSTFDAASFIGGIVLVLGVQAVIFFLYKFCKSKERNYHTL
UniProt P16070: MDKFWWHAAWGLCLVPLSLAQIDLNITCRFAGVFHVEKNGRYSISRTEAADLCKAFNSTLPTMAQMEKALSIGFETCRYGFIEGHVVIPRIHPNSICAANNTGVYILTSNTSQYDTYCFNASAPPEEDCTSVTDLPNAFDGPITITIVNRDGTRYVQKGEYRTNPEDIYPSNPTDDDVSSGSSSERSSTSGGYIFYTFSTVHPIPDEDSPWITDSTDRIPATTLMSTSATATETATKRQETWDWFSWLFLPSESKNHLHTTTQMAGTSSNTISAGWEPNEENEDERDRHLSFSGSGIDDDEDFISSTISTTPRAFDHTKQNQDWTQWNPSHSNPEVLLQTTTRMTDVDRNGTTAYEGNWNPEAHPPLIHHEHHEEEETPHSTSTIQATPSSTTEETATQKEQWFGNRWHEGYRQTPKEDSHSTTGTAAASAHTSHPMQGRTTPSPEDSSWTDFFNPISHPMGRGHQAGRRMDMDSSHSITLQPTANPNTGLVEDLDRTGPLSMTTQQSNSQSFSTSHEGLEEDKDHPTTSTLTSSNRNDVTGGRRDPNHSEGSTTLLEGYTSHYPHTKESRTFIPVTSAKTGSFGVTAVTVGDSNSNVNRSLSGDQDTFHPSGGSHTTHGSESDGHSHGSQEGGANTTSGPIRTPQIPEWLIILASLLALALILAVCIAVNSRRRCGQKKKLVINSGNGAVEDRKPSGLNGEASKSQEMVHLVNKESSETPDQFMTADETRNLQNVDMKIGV
UniProt Q96EE4: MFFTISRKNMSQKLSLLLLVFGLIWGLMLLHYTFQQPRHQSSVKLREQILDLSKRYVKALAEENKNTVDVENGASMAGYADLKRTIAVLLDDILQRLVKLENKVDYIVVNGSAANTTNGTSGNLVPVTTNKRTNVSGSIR
UniProt P15529: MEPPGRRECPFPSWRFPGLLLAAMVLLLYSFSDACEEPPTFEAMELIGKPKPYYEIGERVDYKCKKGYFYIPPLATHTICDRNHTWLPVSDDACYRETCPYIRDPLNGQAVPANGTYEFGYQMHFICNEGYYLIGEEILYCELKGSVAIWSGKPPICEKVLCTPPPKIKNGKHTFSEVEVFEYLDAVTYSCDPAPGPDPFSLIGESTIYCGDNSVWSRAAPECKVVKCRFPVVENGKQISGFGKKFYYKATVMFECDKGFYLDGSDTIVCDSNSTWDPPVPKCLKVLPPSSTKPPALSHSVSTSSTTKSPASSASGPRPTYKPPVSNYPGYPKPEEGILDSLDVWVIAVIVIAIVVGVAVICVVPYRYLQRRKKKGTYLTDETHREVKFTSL
UniProt Q5T9S5: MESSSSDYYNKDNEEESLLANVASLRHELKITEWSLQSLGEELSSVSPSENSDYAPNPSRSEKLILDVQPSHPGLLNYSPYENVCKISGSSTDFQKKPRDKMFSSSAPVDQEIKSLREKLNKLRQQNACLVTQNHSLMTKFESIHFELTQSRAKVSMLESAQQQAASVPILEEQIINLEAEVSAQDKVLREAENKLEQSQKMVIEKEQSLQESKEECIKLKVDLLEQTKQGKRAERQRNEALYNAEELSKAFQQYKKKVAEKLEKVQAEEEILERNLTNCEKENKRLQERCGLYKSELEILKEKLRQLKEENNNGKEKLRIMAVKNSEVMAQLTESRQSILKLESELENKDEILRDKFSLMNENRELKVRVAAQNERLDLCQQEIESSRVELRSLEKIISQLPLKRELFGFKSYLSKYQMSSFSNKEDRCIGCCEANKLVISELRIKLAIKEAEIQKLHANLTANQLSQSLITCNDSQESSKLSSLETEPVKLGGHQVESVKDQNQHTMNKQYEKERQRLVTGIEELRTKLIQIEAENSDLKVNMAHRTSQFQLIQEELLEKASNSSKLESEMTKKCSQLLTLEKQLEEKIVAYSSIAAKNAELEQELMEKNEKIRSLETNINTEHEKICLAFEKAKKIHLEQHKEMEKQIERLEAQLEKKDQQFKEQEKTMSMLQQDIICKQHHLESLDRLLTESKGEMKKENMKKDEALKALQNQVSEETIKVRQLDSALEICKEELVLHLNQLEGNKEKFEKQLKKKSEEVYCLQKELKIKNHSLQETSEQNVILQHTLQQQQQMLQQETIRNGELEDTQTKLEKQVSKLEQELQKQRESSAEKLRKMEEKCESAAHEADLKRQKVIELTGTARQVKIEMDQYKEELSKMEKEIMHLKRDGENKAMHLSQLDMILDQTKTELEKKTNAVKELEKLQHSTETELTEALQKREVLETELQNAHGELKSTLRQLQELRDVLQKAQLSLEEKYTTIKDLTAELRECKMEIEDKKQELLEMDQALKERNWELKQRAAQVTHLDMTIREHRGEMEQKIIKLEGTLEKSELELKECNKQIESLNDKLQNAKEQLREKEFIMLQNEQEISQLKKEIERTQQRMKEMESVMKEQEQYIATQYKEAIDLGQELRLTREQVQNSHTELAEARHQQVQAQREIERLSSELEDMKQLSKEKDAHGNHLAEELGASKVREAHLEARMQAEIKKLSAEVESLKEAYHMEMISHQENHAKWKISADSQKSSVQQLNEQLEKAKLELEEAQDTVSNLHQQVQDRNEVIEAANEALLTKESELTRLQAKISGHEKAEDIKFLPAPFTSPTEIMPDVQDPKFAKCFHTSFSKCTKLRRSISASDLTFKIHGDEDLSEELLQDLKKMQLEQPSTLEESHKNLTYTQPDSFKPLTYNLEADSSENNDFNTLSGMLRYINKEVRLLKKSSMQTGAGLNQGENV
UniProt Q14790: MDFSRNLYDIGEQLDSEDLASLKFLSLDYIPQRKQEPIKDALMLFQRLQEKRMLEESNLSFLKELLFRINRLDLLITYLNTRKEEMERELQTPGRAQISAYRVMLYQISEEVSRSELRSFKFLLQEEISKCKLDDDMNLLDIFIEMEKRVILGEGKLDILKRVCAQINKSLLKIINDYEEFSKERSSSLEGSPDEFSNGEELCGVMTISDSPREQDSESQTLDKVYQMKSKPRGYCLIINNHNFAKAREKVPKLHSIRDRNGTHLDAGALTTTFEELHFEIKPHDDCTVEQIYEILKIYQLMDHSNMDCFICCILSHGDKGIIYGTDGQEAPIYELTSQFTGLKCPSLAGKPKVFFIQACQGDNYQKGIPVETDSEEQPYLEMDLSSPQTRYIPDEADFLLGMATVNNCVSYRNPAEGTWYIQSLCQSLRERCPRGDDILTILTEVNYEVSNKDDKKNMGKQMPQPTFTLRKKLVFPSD
UniProt Q8N9Z2: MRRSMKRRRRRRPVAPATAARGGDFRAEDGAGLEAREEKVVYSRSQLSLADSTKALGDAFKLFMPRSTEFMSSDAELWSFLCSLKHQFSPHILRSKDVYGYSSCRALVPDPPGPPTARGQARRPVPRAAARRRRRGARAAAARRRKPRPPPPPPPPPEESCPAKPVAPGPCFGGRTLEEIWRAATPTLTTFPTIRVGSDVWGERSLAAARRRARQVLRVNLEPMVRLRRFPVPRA
UniProt Q07108: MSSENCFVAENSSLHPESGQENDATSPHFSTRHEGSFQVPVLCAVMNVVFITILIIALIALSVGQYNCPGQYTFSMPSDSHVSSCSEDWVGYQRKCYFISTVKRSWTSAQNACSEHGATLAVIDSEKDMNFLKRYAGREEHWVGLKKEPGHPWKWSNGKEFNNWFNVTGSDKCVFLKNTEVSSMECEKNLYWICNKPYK
UniProt P51636: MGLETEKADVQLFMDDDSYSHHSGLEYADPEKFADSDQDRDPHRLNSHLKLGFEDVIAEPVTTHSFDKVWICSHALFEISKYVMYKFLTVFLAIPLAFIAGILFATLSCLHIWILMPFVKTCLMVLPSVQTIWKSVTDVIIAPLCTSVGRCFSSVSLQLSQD
UniProt Q9H0W5: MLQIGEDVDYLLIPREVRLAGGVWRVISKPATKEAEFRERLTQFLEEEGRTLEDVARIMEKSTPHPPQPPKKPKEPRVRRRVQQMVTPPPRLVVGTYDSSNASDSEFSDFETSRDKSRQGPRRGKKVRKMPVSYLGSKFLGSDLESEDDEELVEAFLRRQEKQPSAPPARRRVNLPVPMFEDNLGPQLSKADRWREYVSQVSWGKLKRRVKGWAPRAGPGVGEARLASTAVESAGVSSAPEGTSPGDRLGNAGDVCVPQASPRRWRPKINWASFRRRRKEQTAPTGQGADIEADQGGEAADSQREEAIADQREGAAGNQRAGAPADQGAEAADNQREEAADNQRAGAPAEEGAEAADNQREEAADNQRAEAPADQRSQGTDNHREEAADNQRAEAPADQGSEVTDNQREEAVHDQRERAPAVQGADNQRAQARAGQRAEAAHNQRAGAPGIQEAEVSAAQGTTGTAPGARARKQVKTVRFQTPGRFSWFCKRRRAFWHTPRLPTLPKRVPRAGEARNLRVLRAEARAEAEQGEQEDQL

[2] = compound: CCn1cc(-c2ccnc3[nH]c(-c4cccc(CN(C)C)c4)cc23)c(-c2ccc(NC(=O)N(C)C)cc2)n1
Procedure, shortened: as §1

[3] = compound: CN1CCC(CNc2ccc3ncc(-c4cccc(OC(F)(F)F)c4)n3n2)CC1
Procedure, shortened: as §1

sotrastaurin = compound: CN1CCN(c2nc(C3=C(c4c[nH]c5ccccc45)C(=O)NC3=O)c3ccccc3n2)CC1 [sotrastaurin]
Procedure, shortened: as §1

alvocidib = compound: CN1CC[C@H](c2c(O)cc(O)c3c(=O)cc(-c4ccccc4Cl)oc23)[C@H](O)C1 [alvocidib]
Procedure, shortened: as §1

barasertib = compound: CCN(CCCOc1ccc2c(Nc3cc(CC(=O)Nc4cccc(F)c4)[nH]n3)ncnc2c1)CCOP(=O)(O)O [barasertib]
Procedure, shortened: as §1

[4] = compound: CC[C@@H]1C(=O)N(C)c2cnc(Nc3ccc(C(=O)NC4CCN(C)CC4)cc3OC)nc2N1C1CCCC1
Procedure, shortened: as §1

[5] = compound: CCn1c(C(=O)N(C2CC2)C2CC2)cc2c3c(ncn3C)c(Nc3cc(C)n(C)n3)nc21
Procedure, shortened: as §1

Tubastatin A = compound: CN1CCc2c(c3ccccc3n2Cc2ccc(C(=O)NO)cc2)C1 [Tubastatin A]
Procedure, shortened: as §1

encorafenib = compound: COC(=O)N[C@@H](C)CNc1nccc(-c2cn(C(C)C)nc2-c2cc(Cl)cc(NS(C)(=O)=O)c2F)n1 [encorafenib]
Procedure, shortened: as §1

[6] = compound: COC(=O)[C@H](CCSC)NC(=O)C1=C(C=C(C=C1)NC[C@H](CS)N)C2=CC=CC=C2
Procedure, shortened: as §1

alisertib = compound: COc1cc(Nc2ncc3c(n2)-c2ccc(Cl)cc2C(c2c(F)cccc2OC)=NC3)ccc1C(=O)O [alisertib]
Procedure, shortened: as §1

gefitinib = compound: COc1cc2ncnc(Nc3ccc(F)c(Cl)c3)c2cc1OCCCN1CCOCC1 [gefitinib]
Procedure, shortened: as §1

[7] = compound: CCCS(=O)(=O)Nc1ccc(F)c(C(=O)c2c[nH]c3ncc(Cl)cc23)c1F
Procedure, shortened: as §1

volasertib = compound: CC[C@@H]1C(=O)N(C)c2cnc(Nc3ccc(C(=O)N[C@H]4CC[C@H](N5CCN(CC6CC6)CC5)CC4)cc3OC)nc2N1C(C)C [volasertib]
Procedure, shortened: as §1

saracatinib = compound: CN1CCN(CCOc2cc(OC3CCOCC3)c3c(Nc4c(Cl)ccc5c4OCO5)ncnc3c2)CC1 [saracatinib]
Procedure, shortened: as §1

[8] = compound: CNc1nc(-c2ccc3c(N)n[nH]c3c2)cc(N2C[C@@H](C(=O)NC3CCCCC3)CC[C@H]2C)n1
Procedure, shortened: as §1

[9] = compound: COc1cc2nc(-c3cc(F)ccc3O)nc(N[C@@H]3CNC[C@H]3C(C)(C)O)c2cc1OC
Procedure, shortened: as §1

Measured: log2 fold change

CCDC43 isoform 2 (UniProt Q96MW1)
inactive: [1] -0.385

CCND1 (UniProt P24385)
inactive: [2] -0.345 | [3] 0.09 | sotrastaurin -0.072 | alvocidib 0.036

CCDC130 (UniProt P13994)
inactive: barasertib 0.045 | [4] 0.036 | [5] -0.027 | sotrastaurin 0.147 | Tubastatin A -0.066 | [1] -0.275 | encorafenib -0.015 | [6] 0.09

CCRL2 isoform 2 (UniProt O00421)
inactive: barasertib 0.147 | [5] -0.124 | Tubastatin A 0.107 | [1] -0.1 | alisertib -0.221 | gefitinib 0.053

CD40 (UniProt P25942)
inactive: [2] -0.389 | [3] -0.196 | alvocidib -0.121

CD33 (UniProt P20138)
inactive: [7] -0.116 | volasertib -0.08 | [2] 0.053 | [3] -0.04 | saracatinib 0.038 | sotrastaurin 0.17 | alvocidib -0.048 | [8] -0.216 | alisertib -0.089 | [9] -0.004 | gefitinib 0.17

CASTOR1 (UniProt Q8WTX7)
inactive: sotrastaurin 0.081

CCDC88A isoform 2 (UniProt Q3V6T2)
inactive: [2] -0.048 | [3] 0.039 | alvocidib -0.136 | alisertib -0.033 | gefitinib 0.076

CBX3 (UniProt B8ZZ43)
inactive: [5] 0.013 | [2] -0.08 | [3] 0.116 | sotrastaurin 0.06 | alvocidib -0.002 | Tubastatin A -0.068 | alisertib 0.107 | gefitinib 0.201

Taken from the listing (2 entries):
CCDC88A isoform 2 (UniProt Q3V6T2)
inactive: [2] -0.048 | [3] 0.039 | alvocidib -0.136 | alisertib -0.033 | gefitinib 0.076

CBX3 (UniProt B8ZZ43)
inactive: [5] 0.013 | [2] -0.08 | [3] 0.116 | sotrastaurin 0.06 | alvocidib -0.002 | Tubastatin A -0.068 | alisertib 0.107 | gefitinib 0.201

Next records:

CD164 (UniProt Q04900)
inactive: sotrastaurin 0.112 | [1] 0.052

CCDC66 (UniProt A2RUB6)
inactive: [4] -0.152 | [5] -0.015 | Tubastatin A -0.082 | encorafenib 0.299 | [6] 0.157

CASP8AP2 (UniProt Q9UKL3)
inactive: barasertib 0.034 | [4] 0.034 | [5] -0.107 | [2] -0.086 | [3] -0.012 | sotrastaurin 0.078 | alvocidib 0.021 | Tubastatin A 0.137 | encorafenib -0.001 | [6] 0.22

CD44 (UniProt P16070)
inactive: [4] -0.03 | [2] 0.117 | [3] 0.039 | alvocidib -0.074 | [1] -0.108 | encorafenib 0.049 | [6] -0.055 | alisertib -0.126 | gefitinib 0.062

CCDC126 (UniProt Q96EE4)
inactive: sotrastaurin 0.135 | [1] 0.047

CD46 (UniProt P15529)
inactive: sotrastaurin 0.161 | [1] 0.057

CCDC18 (UniProt Q5T9S5)
inactive: [4] -0.167 | [5] -0.128 | [2] -0.235 | [3] 0.087 | saracatinib 0.005 | sotrastaurin -0.127 | alvocidib -0.08 | Tubastatin A 0.073 | [8] 0.137 | encorafenib -0.037 | [6] 0.016 | alisertib -0.092 | gefitinib -0.111

CASP8 isoform 4 (UniProt Q14790)
inactive: barasertib 0.15 | saracatinib 0.071 | [8] -0.028

CCDC71L (UniProt Q8N9Z2)
inactive: [2] -0.132 | [3] 0.054 | saracatinib 0.167 | alvocidib -0.024 | [8] -0.172

CD69 (UniProt Q07108)
inactive: sotrastaurin 0.221

CAV2 (UniProt P51636)
inactive: [7] -0.094 | volasertib -0.033 | [5] 0.117 | [2] -0.157 | [3] 0.05 | saracatinib 0.07 | sotrastaurin -0.11 | alvocidib -0.029 | Tubastatin A -0.328 | [1] -0.093 | [8] -0.406 | [9] 0.012

CCDC8 (UniProt Q9H0W5)
inactive: saracatinib -0.047 | [8] 0.019 | alisertib 0.047 | gefitinib -0.065

From the supplement of paper PMC10849652
